Experimental data taken from publication PMC6233205.
These are yes or no findings as the source states them, for the method shown. In cells and extracts the contact can be indirect. Some binding calls cover weakened binding; strength is not graded here.

Amino acid sequences for entries named in this document (tags omitted).
UniProt Q9JMA1: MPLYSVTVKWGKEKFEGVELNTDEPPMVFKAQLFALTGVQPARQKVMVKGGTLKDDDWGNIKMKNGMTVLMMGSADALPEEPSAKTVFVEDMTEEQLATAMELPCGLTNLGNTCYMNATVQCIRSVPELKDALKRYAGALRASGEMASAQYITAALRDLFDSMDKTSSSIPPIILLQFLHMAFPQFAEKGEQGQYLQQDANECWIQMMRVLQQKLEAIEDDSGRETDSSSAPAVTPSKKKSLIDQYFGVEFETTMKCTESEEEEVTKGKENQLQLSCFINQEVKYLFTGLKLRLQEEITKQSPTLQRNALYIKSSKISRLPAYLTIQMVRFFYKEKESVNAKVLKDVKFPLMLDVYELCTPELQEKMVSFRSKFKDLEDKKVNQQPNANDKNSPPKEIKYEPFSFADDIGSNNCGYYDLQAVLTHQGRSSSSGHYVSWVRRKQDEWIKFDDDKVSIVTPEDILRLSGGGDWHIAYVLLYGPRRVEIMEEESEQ
UniProt P19096: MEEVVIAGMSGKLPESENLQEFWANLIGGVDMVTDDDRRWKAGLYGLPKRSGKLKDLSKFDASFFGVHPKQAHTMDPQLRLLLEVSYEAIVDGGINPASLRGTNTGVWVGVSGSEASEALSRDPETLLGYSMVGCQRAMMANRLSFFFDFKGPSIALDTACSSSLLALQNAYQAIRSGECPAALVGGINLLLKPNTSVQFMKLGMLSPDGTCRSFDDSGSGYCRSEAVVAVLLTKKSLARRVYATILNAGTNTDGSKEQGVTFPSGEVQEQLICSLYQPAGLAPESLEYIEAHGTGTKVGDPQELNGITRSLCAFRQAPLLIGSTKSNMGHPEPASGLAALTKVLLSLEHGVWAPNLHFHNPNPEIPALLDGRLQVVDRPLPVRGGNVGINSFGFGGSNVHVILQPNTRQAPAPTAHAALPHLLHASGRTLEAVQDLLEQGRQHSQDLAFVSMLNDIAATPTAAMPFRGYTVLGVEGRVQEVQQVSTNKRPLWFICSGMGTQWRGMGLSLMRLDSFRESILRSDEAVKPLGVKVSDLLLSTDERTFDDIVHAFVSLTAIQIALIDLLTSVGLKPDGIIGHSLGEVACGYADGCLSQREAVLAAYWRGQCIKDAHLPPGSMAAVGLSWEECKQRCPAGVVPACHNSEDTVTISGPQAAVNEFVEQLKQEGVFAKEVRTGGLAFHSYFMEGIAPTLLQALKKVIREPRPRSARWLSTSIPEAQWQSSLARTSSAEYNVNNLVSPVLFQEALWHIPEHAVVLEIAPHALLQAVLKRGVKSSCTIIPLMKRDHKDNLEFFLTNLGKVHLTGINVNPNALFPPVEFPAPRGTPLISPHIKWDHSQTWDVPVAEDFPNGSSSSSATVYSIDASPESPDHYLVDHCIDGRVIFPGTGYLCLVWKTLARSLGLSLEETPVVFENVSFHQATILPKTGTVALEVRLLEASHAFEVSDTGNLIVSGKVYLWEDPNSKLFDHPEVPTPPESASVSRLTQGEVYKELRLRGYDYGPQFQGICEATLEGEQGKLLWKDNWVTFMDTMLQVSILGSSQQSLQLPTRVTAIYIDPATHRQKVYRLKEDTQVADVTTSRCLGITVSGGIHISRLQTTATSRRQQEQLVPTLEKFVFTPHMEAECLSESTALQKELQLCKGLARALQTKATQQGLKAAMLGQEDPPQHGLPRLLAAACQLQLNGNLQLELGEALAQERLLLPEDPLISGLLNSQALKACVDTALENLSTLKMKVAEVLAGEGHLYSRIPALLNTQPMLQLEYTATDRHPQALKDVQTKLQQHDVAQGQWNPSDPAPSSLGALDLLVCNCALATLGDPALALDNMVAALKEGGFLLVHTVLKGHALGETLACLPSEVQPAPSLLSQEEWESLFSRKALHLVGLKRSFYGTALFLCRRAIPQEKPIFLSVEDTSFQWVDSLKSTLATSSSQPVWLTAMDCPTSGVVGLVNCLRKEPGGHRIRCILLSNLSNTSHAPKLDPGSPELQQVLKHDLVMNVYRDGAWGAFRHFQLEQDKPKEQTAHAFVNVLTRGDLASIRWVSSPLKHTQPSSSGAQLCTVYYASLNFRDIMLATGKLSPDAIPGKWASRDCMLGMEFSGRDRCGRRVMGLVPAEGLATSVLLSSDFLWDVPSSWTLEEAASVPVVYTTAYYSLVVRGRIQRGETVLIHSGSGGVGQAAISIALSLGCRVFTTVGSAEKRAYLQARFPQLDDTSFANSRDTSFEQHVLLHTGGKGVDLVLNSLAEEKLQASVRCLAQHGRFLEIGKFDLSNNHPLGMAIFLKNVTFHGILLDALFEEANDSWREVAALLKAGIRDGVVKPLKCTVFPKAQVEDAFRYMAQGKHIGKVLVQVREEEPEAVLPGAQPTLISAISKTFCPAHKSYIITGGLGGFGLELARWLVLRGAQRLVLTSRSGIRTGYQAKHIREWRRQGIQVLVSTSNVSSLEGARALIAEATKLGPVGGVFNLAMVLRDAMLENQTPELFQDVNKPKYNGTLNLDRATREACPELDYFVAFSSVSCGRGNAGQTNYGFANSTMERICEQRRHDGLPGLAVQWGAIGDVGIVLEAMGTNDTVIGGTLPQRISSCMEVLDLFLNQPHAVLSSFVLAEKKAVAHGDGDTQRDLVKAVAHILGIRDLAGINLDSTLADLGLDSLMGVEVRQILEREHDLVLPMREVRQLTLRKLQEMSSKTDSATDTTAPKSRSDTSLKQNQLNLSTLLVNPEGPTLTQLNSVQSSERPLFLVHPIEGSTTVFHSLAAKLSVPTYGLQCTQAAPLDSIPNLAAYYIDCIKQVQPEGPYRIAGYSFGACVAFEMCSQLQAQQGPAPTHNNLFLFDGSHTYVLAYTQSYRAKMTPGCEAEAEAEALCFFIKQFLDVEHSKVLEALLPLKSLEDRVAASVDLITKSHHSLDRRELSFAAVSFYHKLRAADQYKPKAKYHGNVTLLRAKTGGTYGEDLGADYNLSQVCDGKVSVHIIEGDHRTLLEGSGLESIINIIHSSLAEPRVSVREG

Molecular target: USP14, endogenous in mouse primary hepatocytes (mouse (endogenous in mouse primary hepatocytes)) (UniProt Q9JMA1)
Experiment: co-IP; lysate of mouse primary hepatocytes incubated with anti-USP14 antibody or normal rabbit IgG; immunocomplexes probed by western blot

- binding: binds
Substance: fatty acid synthase (FASN), endogenous in mouse primary hepatocytes (from UniProt P19096 1-2504) (enzyme)
